The source of these data is the supplement of paper PMC10032668.

Sequences of proteins named here, by UniProt entry; tags and fusion partners are left off.
CKS2, P33552, UniProt P33552, whole entry: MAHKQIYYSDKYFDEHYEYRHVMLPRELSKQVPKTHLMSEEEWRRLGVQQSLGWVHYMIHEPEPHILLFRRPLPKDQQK
EIF1, P41567, UniProt P41567, whole entry: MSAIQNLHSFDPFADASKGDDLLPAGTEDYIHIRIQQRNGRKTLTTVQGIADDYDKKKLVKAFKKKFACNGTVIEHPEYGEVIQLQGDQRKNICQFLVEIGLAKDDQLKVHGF
FAM168B, A1KXE4, UniProt A1KXE4, whole entry: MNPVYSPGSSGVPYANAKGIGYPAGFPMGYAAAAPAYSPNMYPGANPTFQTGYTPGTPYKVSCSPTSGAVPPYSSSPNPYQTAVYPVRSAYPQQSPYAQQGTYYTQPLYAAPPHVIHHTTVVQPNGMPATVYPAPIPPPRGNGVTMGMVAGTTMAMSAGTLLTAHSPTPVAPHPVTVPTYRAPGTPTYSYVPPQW
HSPB1, P04792, UniProt P04792, whole entry: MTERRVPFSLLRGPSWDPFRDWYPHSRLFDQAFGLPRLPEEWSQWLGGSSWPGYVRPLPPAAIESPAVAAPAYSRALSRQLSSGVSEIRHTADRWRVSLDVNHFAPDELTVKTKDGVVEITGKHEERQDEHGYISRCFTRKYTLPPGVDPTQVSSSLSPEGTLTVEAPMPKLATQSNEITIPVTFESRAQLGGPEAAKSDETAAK
DDX39A, O00148, UniProt O00148, whole entry: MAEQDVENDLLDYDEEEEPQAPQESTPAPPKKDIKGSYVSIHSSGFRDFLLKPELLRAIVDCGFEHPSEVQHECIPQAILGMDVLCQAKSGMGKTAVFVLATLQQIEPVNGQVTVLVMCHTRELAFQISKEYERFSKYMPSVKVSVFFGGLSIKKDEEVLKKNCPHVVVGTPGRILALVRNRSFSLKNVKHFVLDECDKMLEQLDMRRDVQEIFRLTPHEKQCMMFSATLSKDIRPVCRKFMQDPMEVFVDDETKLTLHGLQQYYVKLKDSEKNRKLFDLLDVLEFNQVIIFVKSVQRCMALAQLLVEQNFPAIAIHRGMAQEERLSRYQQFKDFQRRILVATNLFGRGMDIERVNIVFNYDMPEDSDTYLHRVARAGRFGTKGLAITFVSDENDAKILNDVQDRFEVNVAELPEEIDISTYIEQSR
DNM1L, O00429, UniProt O00429, whole entry: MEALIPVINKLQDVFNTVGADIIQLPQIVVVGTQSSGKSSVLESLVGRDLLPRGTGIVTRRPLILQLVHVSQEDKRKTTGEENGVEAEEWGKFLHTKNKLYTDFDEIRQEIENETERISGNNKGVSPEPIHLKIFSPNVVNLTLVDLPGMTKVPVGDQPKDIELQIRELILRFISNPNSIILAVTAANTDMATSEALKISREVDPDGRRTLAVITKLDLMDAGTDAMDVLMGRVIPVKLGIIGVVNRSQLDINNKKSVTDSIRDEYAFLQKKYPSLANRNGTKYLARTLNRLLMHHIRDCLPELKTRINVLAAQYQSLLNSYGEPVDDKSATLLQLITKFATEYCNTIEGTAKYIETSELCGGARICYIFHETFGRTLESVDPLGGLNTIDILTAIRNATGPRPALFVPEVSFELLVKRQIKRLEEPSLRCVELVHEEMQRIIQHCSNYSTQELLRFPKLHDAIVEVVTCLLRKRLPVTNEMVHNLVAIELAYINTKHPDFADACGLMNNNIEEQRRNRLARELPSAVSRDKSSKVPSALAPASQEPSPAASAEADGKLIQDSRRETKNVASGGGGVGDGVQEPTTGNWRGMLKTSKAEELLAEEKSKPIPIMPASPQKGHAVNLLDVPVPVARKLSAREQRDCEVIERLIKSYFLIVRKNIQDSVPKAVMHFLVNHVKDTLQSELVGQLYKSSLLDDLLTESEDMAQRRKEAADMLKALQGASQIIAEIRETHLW
PIK3R4, Q99570, UniProt Q99570, whole entry: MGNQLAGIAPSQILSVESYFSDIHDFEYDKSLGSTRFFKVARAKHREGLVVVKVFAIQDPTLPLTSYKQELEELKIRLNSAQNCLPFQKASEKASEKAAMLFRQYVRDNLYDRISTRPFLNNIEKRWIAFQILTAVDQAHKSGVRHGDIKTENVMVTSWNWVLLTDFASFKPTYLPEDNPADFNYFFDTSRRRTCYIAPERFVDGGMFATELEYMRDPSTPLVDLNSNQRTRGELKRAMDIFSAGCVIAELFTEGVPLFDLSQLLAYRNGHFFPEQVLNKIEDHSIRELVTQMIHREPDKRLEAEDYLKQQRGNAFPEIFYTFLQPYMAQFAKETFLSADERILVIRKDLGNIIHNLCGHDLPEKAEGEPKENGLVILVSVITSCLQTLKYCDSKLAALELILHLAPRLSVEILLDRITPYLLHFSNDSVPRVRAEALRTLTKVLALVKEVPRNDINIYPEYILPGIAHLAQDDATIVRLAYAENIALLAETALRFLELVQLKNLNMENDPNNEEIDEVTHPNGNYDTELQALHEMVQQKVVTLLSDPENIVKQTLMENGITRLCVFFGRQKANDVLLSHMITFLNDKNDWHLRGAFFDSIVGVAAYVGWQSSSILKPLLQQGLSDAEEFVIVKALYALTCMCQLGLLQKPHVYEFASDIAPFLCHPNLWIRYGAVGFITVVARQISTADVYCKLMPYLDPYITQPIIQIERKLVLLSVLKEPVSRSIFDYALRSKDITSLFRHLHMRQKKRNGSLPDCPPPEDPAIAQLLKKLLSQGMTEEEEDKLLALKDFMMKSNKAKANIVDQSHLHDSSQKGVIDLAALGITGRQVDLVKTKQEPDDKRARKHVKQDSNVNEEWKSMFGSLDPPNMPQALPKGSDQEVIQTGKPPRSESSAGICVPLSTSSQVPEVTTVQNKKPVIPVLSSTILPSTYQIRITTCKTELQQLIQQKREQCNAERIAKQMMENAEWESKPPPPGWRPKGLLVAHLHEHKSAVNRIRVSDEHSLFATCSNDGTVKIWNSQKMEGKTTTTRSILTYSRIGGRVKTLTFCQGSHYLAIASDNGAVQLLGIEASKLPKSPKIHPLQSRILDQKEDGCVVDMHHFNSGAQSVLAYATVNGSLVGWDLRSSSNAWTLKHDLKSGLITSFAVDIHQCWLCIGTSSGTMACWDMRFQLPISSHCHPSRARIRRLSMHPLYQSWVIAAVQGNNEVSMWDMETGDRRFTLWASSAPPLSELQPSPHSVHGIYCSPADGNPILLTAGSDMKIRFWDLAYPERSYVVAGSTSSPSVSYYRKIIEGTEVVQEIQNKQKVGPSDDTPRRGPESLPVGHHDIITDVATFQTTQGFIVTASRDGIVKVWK
FN1, P02751, UniProt P02751, whole entry: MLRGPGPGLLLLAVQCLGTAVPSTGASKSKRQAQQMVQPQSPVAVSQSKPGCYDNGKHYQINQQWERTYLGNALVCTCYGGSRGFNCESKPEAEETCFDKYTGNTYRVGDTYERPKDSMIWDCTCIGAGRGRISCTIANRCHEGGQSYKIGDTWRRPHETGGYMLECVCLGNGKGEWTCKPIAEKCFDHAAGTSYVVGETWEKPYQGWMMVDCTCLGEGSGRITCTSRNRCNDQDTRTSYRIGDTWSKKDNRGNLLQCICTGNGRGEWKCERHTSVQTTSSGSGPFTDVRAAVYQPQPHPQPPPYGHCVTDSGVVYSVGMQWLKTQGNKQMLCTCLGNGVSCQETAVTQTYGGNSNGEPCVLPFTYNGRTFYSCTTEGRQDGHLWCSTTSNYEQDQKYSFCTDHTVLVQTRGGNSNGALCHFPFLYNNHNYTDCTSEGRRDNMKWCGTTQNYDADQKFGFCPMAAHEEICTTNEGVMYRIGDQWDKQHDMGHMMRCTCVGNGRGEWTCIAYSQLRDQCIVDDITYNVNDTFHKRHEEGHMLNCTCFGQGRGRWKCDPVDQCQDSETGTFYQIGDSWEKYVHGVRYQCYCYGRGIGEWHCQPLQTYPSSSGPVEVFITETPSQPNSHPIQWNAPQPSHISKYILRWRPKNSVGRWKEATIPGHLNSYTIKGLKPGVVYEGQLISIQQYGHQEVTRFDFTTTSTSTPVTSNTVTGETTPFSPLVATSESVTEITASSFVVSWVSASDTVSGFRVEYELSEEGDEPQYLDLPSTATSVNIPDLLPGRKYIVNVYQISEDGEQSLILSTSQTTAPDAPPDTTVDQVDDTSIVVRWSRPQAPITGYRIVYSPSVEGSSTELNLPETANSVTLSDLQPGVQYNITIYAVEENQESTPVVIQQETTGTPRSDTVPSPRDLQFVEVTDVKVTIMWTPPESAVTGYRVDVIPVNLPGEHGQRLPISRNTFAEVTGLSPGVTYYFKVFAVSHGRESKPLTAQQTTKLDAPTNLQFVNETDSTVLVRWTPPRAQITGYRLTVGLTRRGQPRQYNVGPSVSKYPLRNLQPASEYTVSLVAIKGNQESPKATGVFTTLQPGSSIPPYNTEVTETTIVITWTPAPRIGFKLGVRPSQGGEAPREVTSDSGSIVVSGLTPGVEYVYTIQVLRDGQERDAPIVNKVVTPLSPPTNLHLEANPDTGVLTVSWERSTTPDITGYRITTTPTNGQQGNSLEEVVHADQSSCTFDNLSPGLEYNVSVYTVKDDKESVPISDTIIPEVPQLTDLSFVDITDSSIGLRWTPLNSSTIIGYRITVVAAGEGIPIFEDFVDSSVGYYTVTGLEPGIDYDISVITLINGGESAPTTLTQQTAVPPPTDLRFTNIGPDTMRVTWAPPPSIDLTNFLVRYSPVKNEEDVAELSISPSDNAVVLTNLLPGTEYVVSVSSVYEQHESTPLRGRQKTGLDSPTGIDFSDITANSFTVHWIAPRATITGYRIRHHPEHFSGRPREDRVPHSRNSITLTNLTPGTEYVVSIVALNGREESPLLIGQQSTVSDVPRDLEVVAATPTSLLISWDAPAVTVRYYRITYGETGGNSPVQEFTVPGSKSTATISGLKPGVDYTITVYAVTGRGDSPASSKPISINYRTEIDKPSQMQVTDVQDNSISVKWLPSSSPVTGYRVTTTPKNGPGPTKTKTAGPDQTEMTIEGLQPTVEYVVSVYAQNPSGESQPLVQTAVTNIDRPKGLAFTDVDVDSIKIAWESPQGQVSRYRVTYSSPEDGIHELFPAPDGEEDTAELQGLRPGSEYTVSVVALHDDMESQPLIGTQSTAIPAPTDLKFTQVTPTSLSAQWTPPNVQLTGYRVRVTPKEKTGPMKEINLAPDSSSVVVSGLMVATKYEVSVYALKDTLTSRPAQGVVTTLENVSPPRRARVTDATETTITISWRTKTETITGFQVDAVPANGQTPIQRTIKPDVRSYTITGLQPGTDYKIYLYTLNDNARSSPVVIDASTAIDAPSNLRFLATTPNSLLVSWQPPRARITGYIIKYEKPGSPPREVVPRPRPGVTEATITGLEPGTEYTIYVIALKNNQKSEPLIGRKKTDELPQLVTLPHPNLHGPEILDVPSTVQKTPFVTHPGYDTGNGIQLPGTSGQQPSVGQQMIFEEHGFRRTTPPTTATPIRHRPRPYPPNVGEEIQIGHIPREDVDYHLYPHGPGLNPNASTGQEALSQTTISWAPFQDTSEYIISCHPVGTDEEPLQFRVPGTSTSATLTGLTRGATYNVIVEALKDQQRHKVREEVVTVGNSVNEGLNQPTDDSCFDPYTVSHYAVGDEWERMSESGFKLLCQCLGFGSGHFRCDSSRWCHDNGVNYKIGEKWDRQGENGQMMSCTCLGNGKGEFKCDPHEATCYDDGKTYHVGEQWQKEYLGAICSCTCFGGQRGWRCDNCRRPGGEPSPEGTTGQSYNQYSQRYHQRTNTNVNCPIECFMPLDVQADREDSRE
PPP2R5D, Q14738, UniProt Q14738, whole entry: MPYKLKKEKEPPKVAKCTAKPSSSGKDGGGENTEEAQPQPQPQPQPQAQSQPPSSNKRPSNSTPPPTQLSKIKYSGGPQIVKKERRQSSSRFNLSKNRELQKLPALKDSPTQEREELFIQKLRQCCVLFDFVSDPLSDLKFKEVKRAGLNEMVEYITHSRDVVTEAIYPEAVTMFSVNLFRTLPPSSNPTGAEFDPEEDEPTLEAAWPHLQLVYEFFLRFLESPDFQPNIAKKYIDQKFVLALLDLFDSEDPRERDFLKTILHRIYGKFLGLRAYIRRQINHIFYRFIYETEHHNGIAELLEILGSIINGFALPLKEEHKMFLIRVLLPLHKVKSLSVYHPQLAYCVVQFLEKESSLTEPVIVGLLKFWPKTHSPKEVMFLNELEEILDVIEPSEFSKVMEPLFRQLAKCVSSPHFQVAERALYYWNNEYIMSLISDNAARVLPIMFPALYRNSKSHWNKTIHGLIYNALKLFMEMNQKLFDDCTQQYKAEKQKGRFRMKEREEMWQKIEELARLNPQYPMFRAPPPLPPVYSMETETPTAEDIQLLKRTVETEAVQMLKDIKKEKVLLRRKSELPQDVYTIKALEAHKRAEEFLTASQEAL
TFG, Q92734, UniProt Q92734, whole entry: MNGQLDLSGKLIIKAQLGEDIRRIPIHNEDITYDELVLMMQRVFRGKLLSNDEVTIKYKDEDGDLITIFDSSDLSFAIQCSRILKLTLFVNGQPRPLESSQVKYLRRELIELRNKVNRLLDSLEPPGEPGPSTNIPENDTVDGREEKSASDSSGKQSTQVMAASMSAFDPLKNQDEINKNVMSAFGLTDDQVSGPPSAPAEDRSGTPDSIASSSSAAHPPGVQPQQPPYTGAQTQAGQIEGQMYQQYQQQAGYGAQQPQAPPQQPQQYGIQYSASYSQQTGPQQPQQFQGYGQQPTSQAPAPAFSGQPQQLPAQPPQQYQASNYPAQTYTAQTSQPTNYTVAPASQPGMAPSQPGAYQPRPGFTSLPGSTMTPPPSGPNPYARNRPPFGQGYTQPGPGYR

This is one part of the list. The list holds hits alone, and they repeat only in part.

Experiment in all cases: PRISMA enrichment of interactor (LFQ) in peptide spot vs all other peptide spots (log2 fold change); higher = stronger / more specific binding of the interactor to the peptide
Assay [1] addresses ATP2A2, P16615. As for the experimental part: (§1)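 PRISMA: 15-aa overlapping tiles (offset 8 aa) of 60 microproteins, plus SOS1/GLUT1 control peptides, were spot-synthesized on cellulose membranes in triplicate. Membranes were incubated with benzonase-treated HEK293T lysate, and bound proteins were identified by LC-MS/MS with LFQ. Enrichment is the log2 fold change of each protein in one spot versus all other spots. Only interactors passing the significance cutoff are listed.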

In assay [2] the target is EARS2, Q5JPH6. On the procedure: as §1
The target in assay [3] is GATAD1, Q8WUU5. On the procedure: as §1
Assay [4] has as its target MMTAG2, Q9BU76. On the procedure: as §1
In assay [5] the target is MRPS5, P82675. As for the experimental part: as §1
In assay [6] the target is NUP153, P49790. On the procedure:
as §1

The target of assay [7] is PPP1R10, Q96QC0. As for the experimental part:
as §1

Assay [8] has as its target RBM15, Q96T37. As for the experimental part:
as §1

Assay [9] concerns the target ZCCHC3, Q9NUD5. On the procedure:
as §1

The target of assay [10] is ZFR, Q96KR1. On the procedure: as §1
Assay [11] concerns the target ATP5MF, P56134. As for the experimental part:
as §1

Assay [12] deals with CKS2, P33552. As for the experimental part: as §1
Assay [13] concerns the target DNAJB11, Q9UBS4. As for the experimental part: as §1
Assay [14] deals with EIF1, P41567. As for the experimental part: as §1
In assay [15] the target is EIF5, P55010. On the procedure: as §1
In assay [16] the target is EPS15, P42566. As for the experimental part: as §1
The target of assay [17] is FAM168B, A1KXE4. On the procedure: as §1
The target in assay [18] is HSPB1, P04792. On the procedure:
as §1

Assay [19] concerns the target LSM12, Q3MHD2. As for the experimental part:
as §1

For assay [20], the target named is MLEC, Q14165. On the procedure:
as §1

For assay [21], the target named is NTPCR, Q9BSD7. As for the experimental part:
as §1

In assay [22] the target is PCBP2, Q15366. As for the experimental part: as §1
Assay [23] has as its target SDF2L1, Q9HCN8. As for the experimental part:
as §1

Assay [24] addresses UBAP2L, Q14157. As for the experimental part:
as §1

Assay [25] concerns the target CLASRP, Q8N2M8. On the procedure: as §1
The target in assay [26] is DDX39A, O00148. As for the experimental part: as §1
In assay [27] the target is DHX15, O43143. As for the experimental part:
as §1

In assay [28] the target is DNM1L, O00429. As for the experimental part:
as §1

The target of assay [29] is EBNA1BP2, Q99848. On the procedure:
as §1

Assay [30] addresses ELOB, Q15370. As for the experimental part:
as §1

Assay [31] deals with JPT2, Q9H910. On the procedure: as §1
Assay [32] addresses MCM4, P33991. On the procedure: as §1
Assay [33] deals with NXF1, Q9UBU9. As for the experimental part: as §1
Assay [34] has as its target SCP2, P22307. As for the experimental part: as §1
Assay [35] concerns the target SFXN2, Q96NB2. As for the experimental part:
as §1

For assay [36], the target named is SRRT, Q9BXP5. As for the experimental part: as §1
Assay [37] concerns the target TFB2M, Q9H5Q4. As for the experimental part:
as §1

Assay [38] has as its target TOP1, P11387. As for the experimental part: as §1
Assay [39] addresses UBE3C, Q15386. As for the experimental part:
as §1

In assay [40] the target is ATP1A1, P05023. As for the experimental part: as §1
Assay [41] deals with CARM1, Q86X55. On the procedure: as §1
Assay [42] concerns the target CCNT1, O60563. As for the experimental part: as §1
In assay [43] the target is CDK5, Q00535. As for the experimental part:
as §1

Assay [44] concerns the target CHD4, Q14839. On the procedure:
as §1

Assay [45] concerns the target DDB1, Q16531. On the procedure: as §1
The target in assay [46] is DHX33, Q9H6R0. On the procedure: as §1
In assay [47] the target is DUSP11, O75319. As for the experimental part:
as §1

The target of assay [48] is EIF2B3, Q9NR50. As for the experimental part: as §1
The target of assay [49] is GPD1L, Q8N335. As for the experimental part:
as §1

The target of assay [50] is IRS4, O14654. As for the experimental part: as §1
Assay [51] deals with MRPL1, Q9BYD6. As for the experimental part: as §1
The target in assay [52] is MRPL19, P49406. On the procedure:
as §1

Assay [53] concerns the target MRPL45, Q9BRJ2. On the procedure: as §1
Assay [54] has as its target PAXIP1, Q6ZW49. As for the experimental part: as §1
Assay [55] concerns the target POLR2C, P19387. On the procedure:
as §1

Assay [56] has as its target POLR2J3, Q9H1A7. On the procedure:
as §1

Assay [57] has as its target PPP4R3A, Q6IN85. On the procedure:
as §1

Assay [58] deals with PRRC2C, Q9Y520. On the procedure:
as §1

For assay [59], the target named is RECQL5, O94762. As for the experimental part: as §1
The target in assay [60] is RPL37A, P61513. On the procedure:
as §1

Assay [61] addresses SRSF4, Q08170. On the procedure:
as §1

Assay [62] addresses TIA1, P31483. As for the experimental part: as §1
The target in assay [63] is CSNK2A1, P68400. As for the experimental part:
as §1

Assay [64] concerns the target LUC7L3, O95232. As for the experimental part:
as §1

Assay [65] deals with NDUFA2, O43678. On the procedure: as §1
Assay [66] deals with NOP16, Q9Y3C1. As for the experimental part:
as §1

Assay [67] addresses PIK3R4, Q99570. On the procedure:
as §1

Assay [68] concerns the target ASNS, P08243. On the procedure:
as §1

Assay [69] addresses C19orf53, Q9UNZ5. As for the experimental part: as §1
The target in assay [70] is EP400, Q96L91. As for the experimental part:
as §1

Assay [71] concerns the target EXOC3, O60645. As for the experimental part:
as §1

Assay [72] has as its target FLII, Q13045. As for the experimental part: as §1
The target in assay [73] is FN1, P02751. As for the experimental part: as §1
In assay [74] the target is GPS1, Q13098. On the procedure: as §1
For assay [75], the target named is LRRC40, Q9H9A6. As for the experimental part:
as §1

In assay [76] the target is MAGT1, Q9H0U3. On the procedure:
as §1

Assay [77] has as its target MAP7D2, Q96T17. On the procedure:
as §1

Assay [78] addresses MUC19, Q7Z5P9. As for the experimental part:
as §1

Assay [79] has as its target NSDHL, Q15738. On the procedure:
as §1

Assay [80] deals with PDP1, Q9P0J1. As for the experimental part:
as §1

Substrate in assay [81]: PPIF, P30405
As for the experimental part: as §1

The target of assay [82] is PPP2R5D, Q14738. On the procedure: as §1
Assay [83] has as its target RPS19BP1, Q86WX3. On the procedure:
as §1

In assay [84] the target is SDAD1, Q9NVU7. On the procedure: as §1
The target in assay [85] is SEMG2, Q02383. As for the experimental part:
as §1

The target in assay [86] is TFB1M, Q8WVM0. As for the experimental part: as §1
Assay [87] has as its target TFG, Q92734. As for the experimental part:
as §1

The target in assay [88] is TMEM109, Q9BVC6. As for the experimental part:
as §1

Assay [89] has as its target TRMT112, Q9UI30. On the procedure:
as §1

Assay [90] deals with U2SURP, O15042. On the procedure: as §1
Assay [91] addresses UTP20, O75691. As for the experimental part:
as §1

Assay [92] concerns the target WDR46, O15213. On the procedure:
as §1

B1: RP11-140K17.3 (peptide)
chain: LKSRERQWQGQVAKC
Consider B1, for which the “PRISMA enrichment of interactor (log2)” value in assay [1] is 4.98; in [2], 5.58; in assay [3], 3.98; in assay [4], 5.31; in assay [5] it was 6.98; in [6] it was 5.6. Also, the “PRISMA enrichment of interactor (log2)” value in assay [7] is 4.99; in assay [8], 4.32; in assay [9] it was 4.66; in [10], 6.84.

B2: PDZRN3-AS1 (peptide)
chain: PMIMSTTALLQFWFV
Turning to B2, the “PRISMA enrichment of interactor (log2)” value in [11] came to 5.22; in assay [12], 5.3; in [13], 5.07; in assay [14] it was 5.28; in [15] it was 4.74; in assay [16], 3.69. The “PRISMA enrichment of interactor (log2)” value in assay [17] worked out at 5.93; in assay [18], 4.09; in assay [19] it was 4.63; in assay [20], 6.09; in [21], 5.44; in assay [22], 5. Besides, the figures for the “PRISMA enrichment of interactor (log2)” value in assay [23] and in assay [24] were 4.51 and 5.5, respectively.

B3: RNF10 (peptide)
chain: PTAVAAEAPVDAAEL
Consider B3, for which the “PRISMA enrichment of interactor (log2)” value came out at 5.88 in assay [1]; 4.94 in [25]; 6.23 in [26]; 5.66 in assay [27]; 4.7 in assay [28]; 5.07 in assay [29]. The “PRISMA enrichment of interactor (log2)” value came to 4.55 in assay [30]; 4.17 in assay [31]; 5.23 in assay [32]; 4.83 in assay [33]; 5.01 in assay [34]; 4.56 in assay [35]. Moreover, the “PRISMA enrichment of interactor (log2)” value in [36] is 4.79; in [37], 6.2; in assay [38], 5.46; in assay [39] it was 6.81.

B4: RP11-620J15.3 (peptide)
chain: KLSWKTERPSPDDIV
For B4, the “PRISMA enrichment of interactor (log2)” value in assay [40] was 4.46; in assay [41], 4.98; in assay [42] it was 4.18; in [43], 6.08; in assay [44] it was 4.88; in assay [45], 6.09. In addition, the “PRISMA enrichment of interactor (log2)” value in assay [46] amounted to 4.75; in assay [47] it was 3.85; in [48], 5.76; in assay [49] it was 5.45; in assay [50] it was 5.34; in [51], 4.22. The “PRISMA enrichment of interactor (log2)” value in [52] is 7.85; in assay [53] it was 4.81; in assay [54] it was 3.78; in assay [55], 4.86; in assay [56], 4.34; in assay [57] it was 4.77. The “PRISMA enrichment of interactor (log2)” value in [58] was found to be 4.52; in [59] it was 5.56; in [60] it was 5.41; in [61], 5.59; in assay [62], 4.53.

B5: EBAG9 (peptide)
chain: SPGRFFHNLNLSSPG
B5: the “PRISMA enrichment of interactor (log2)” value turned out to be 6.78 in [11]; 10.2 in assay [63]; 5.2 in assay [64]; 3.93 in [65]; 6.53 in [66]; 5.94 in assay [67].

B6: RP1-206D15.6 (peptide)
chain: GMSIQFPLLRDLVTE
Regarding B6, the “PRISMA enrichment of interactor (log2)” value amounted to 6.4 in [68]; 6.73 in [69]; 6.18 in assay [70]; 4.59 in assay [71]; 5.86 in assay [72]; 7.78 in [73]. For the same molecule, the “PRISMA enrichment of interactor (log2)” value came out at 4.35 in [74]; 6.86 in assay [75]; 5.53 in assay [76]; 5.21 in assay [77]; 7.2 in assay [78]; 4.23 in [79]. Also, the “PRISMA enrichment of interactor (log2)” value was determined as 5.36 in [80]; 4.79 in assay [81]; 8.9 in assay [82]; 4.76 in assay [83]; 5.66 in assay [84]; 4.15 in [85]. For the same molecule, the “PRISMA enrichment of interactor (log2)” value turned out to be 4.94 in [86]; 4.99 in [87]; 4.84 in assay [88]; 7.08 in [89]; 6.07 in [90]; 8.56 in assay [91]. Further, in assay [92], the “PRISMA enrichment of interactor (log2)” value amounted to 5.63.
